In publication PMC6553528, “An Interaction Network of the Human SEPT9 Established by Quantitative Mass Spectrometry” (G3: Genes|Genomes|Genetics, 2019) one finds binding data, which are given here for 1 molecule.

Results are given in words; binding and its absence hold for the method and conditions named. Binding seen in cells or lysates may run through a third protein.

This assay deals with T1, TAP-SEPT9_i1 (human), Q9UHD8.
T1 chain: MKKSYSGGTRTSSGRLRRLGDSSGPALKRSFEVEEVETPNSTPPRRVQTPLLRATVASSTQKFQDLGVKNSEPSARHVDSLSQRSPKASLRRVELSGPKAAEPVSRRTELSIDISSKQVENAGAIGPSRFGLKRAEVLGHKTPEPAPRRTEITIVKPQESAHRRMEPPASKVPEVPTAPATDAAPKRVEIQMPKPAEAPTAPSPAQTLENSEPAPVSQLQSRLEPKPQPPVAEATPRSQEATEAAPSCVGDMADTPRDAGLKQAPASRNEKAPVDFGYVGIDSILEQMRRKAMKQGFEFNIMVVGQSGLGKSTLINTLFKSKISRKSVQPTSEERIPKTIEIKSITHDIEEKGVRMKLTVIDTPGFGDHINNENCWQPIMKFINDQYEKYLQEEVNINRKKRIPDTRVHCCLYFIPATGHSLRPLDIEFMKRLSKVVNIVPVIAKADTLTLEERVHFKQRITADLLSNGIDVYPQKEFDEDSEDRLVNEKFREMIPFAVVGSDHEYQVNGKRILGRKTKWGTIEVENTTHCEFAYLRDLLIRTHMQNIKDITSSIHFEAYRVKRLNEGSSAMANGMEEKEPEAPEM
The experiment in a line: co-IP; affinity purification on human IgG-Sepharose from 1306 fibroblast lysate; Western blot of the steps with anti-ProteinA, anti-GFP or anti-SEPT9. Particulars: remark: other sources report otherwise.

B1: endogenous SEPT9, Q9UHD8 1-586 (protein)
chain: MKKSYSGGTRTSSGRLRRLGDSSGPALKRSFEVEEVETPNSTPPRRVQTPLLRATVASSTQKFQDLGVKNSEPSARHVDSLSQRSPKASLRRVELSGPKAAEPVSRRTELSIDISSKQVENAGAIGPSRFGLKRAEVLGHKTPEPAPRRTEITIVKPQESAHRRMEPPASKVPEVPTAPATDAAPKRVEIQMPKPAEAPTAPSPAQTLENSEPAPVSQLQSRLEPKPQPPVAEATPRSQEATEAAPSCVGDMADTPRDAGLKQAPASRNEKAPVDFGYVGIDSILEQMRRKAMKQGFEFNIMVVGQSGLGKSTLINTLFKSKISRKSVQPTSEERIPKTIEIKSITHDIEEKGVRMKLTVIDTPGFGDHINNENCWQPIMKFINDQYEKYLQEEVNINRKKRIPDTRVHCCLYFIPATGHSLRPLDIEFMKRLSKVVNIVPVIAKADTLTLEERVHFKQRITADLLSNGIDVYPQKEFDEDSEDRLVNEKFREMIPFAVVGSDHEYQVNGKRILGRKTKWGTIEVENTTHCEFAYLRDLLIRTHMQNIKDITSSIHFEAYRVKRLNEGSSAMANGMEEKEPEAPEM
In the case of B1, the binding result is “no binding”.
